Data reported in the supplement of paper PMC4604168 (melanoma cell lines).
This is one part of the list. Many values rest on one well or one pass, so single values are uncertain.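 The apoptosis fraction was the count of cleaved-PARP antibody-stained nuclei relative to all DNA-stained nuclei, imaged in 1,536-well plates. Screening doses were set so most cells survived, and baseline and induced cleaved-PARP levels vary greatly across cell lines.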

Tests used:
Assay in all cases: cleaved PARP positive nuclei fraction relative to DMSO control; melanoma cells; higher = more apoptosis
Conditions in all cases: library dose: low library concentration; 72 h
WM115 = system: WM115
WM1716 = system: WM1716
WM1745 = system: WM1745
WM3526 = system: WM3526
WM3619 = system: WM3619
WM451Lu = system: WM451Lu

SMILES	cleaved PARP positive nuclei fraction (WM115) [%]	cleaved PARP positive nuclei fraction (WM1716) [%]	cleaved PARP positive nuclei fraction (WM1745) [%]	cleaved PARP positive nuclei fraction (WM3526) [%]	cleaved PARP positive nuclei fraction (WM3619) [%]	cleaved PARP positive nuclei fraction (WM451Lu) [%]
Cc1ccc(NC(=O)c2cccc(N(C)C)c2)cc1NC(=O)c1ccc(O)cc1 + c1cc(-c2cnn3cc(-c4ccc(OCCN5CCCCC5)cc4)cnc23)ccn1 [Dorsomorphin] (first compound 2 µM, partner dose 0.4 µM)	106	89.2	119	89.1	104	61.4
CO[C@@H]1[C@H](N(C)C(=O)c2ccccc2)C[C@H]2O[C@]1(C)n1c3ccccc3c3c4c(c5c6ccccc6n2c5c31)C(=O)NC4 [Midostaurin] + NC(=O)Nc1cc(-c2cccc(F)c2)sc1C(=O)N[C@H]1CCCNC1 [AZD7762] (first compound 0.08 µM, partner dose 0.02 µM)	245	180	107	41	246	32.1
OCc1c[nH]c2ccccc12 [Indole-3-carbinol] + Cn1cncc1[C@@](N)(c1ccc(Cl)cc1)c1ccc2c(c1)c(-c1cccc(Cl)c1)cc(=O)n2C [tipifarnib] (first compound 0.8 µM, partner dose 0.01 µM)	138	97.4	92.9	58.6	103	36.4
CC(=O)c1c(C)c2cnc(Nc3ccc(N4CCNCC4)cn3)nc2n(C2CCCC2)c1=O [palbociclib] + O=S(=O)(c1ccccc1)N(CC(F)(F)F)c1ccc(C(O)(C(F)(F)F)C(F)(F)F)cc1 [T0901317] (first compound 0.04 µM, partner dose 1.4 µM)	106	107	138	78.1	122	177
Cn1cncc1[C@@](N)(c1ccc(Cl)cc1)c1ccc2c(c1)c(-c1cccc(Cl)c1)cc(=O)n2C [tipifarnib] + CN(C)S(=O)(=O)c1ccc2c(c1)/C(=C/c1cc3c([nH]1)CCCC3)C(=O)N2 [SU6656] (first compound 0.01 µM, partner dose 0.4 µM)	907	110	90.5	63.6	241	251
Cn1c(Nc2ccc(C(F)(F)F)cc2)nc2cc(Oc3ccnc(-c4ncc(C(F)(F)F)[nH]4)c3)ccc21 + COc1cc2c(Oc3ccc4[nH]c(C)cc4c3F)ncnc2cc1OCCCN1CCCC1 [cediranib] (first compound 0.08 µM, partner dose 0.4 µM)	553	193	138	104	157	253
Cn1nnc2c(C(N)=O)ncn2c1=O [temozolomide] + O=C(O)C(=O)Nc1sc2c(c1C(=O)O)CCNC2 [TCS401] (first compound 2 µM, partner dose 1.66667 µM)	181	187	113	173	346	137
Cc1nc(Nc2ncc(C(=O)Nc3c(C)cccc3Cl)s2)cc(N2CCN(CCO)CC2)n1 [dasatanib] + Oc1nc(-c2ccc(C(F)(F)F)cc2)nc2c1CSCC2 [XAV939] (first compound 0.004 µM, partner dose 2 µM)	403	279	224	67.4	107	31.9
